Data on 54 compounds can be found in PubChem BioAssay AID1487 (National Center for Advancing Translational Sciences (NCATS), 2009).

The other results are listed elsewhere or left out. These are further read-outs of the screen, such as a control signal, another cell line or another target. No call is given for them. Compounds called inactive in the main read-out are mostly missing here. Potencies come from curve fits of mixed quality, noted in brackets.

This test in a line: qHTS Assay for Modulators of Lamin A Splicing. As to conditions: HeLa LMNA splicing GFP/RFP minigene ratio, 48 h. A digest of the protocol:
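S3 HeLa cells stably expressing lamin A-EGFP splicing minigene plus DsRed2, 600 cells/well, 48 h compound exposure at 37C. Laser-scanning cytometry; analysed as GFP (500-530 nm)/RFP (575-640 nm) total intensity ratio; 0.5% DMSO vehicle.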
In general terms: qHTS replaces the single test concentration by a dilution series.

Setting [1] is: measured here: RFP viability control channel.
Where [2] appears, read: measured here: GFP splicing reporter channel.

One may read the AC50 as the midpoint of the concentration-response curve, whichever way the signal moves.

`COc1ccc(OC)c(CCNC(=O)c2c(C)oc3ncn(CC(C)C)c(=O)c23)c1`: the AC50 under setting [1] was 25.1 µM [rising, partial curve, poor fit].
In the case of `O=C(CSCc1ccccc1)N1CCN(c2ccccc2)CC1`, the AC50 under setting [2] was 4.47 µM [rising, full curve, poor fit].
The same measure, in the same setting: then `COc1ccc2[nH]c3c(=O)n4c(nc3c2c1)SCCC4`, with 3.55 µM [falling, single point].
`CCOC(=O)COc1ccccc1/C=C1/NC(=O)NC1=O`: the half-maximal activity concentration (AC50) under setting [1] was 4.47 µM [falling, partial curve].
Turning to `COc1ccc(C(=O)Nc2nnc(-c3ccccc3)o2)cc1OC`, the AC50 is 35.5 µM [rising, single point] under setting [2] and 31.6 µM [rising, single point] under setting [1].
For the compound `Cc1ccc(CS/C(Nc2ccccc2C)=C(\C#N)C(=O)NCc2ccco2)c(C)c1`, the AC50 under setting [2] was 15.8 µM [rising, partial curve] and the AC50 under setting [1] is 17.8 µM [rising, single point].
Turning to `COc1ccc(CCNC(=O)c2ccc(=O)[nH]c2)cc1`, the AC50 under setting [1] was 3.16 µM [falling, partial curve, poor fit].
With `O=S(=O)(c1ccc2nc(-c3ccccc3)[nH]c2c1)N1CCN(c2ccc(Cl)cc2)CC1`, the AC50 under setting [2] was 8.91 µM [rising, partial curve, poor fit] and the AC50 under setting [1] was 5.01 µM [rising, partial curve, poor fit].
Turning to `CCn1c(SCC(=O)Nc2nc(-c3ccccc3)cs2)nnc1-c1ccccc1O`, the AC50 was 7.08 µM [rising, full curve] under setting [2] and 4.47 µM [rising, full curve] under setting [1].
Turning to `O=C(Cn1cc(S(=O)(=O)Cc2cccc(Cl)c2)c2ccccc21)Nc1ccccc1C(F)(F)F`, the AC50 is 31.6 µM [falling, partial curve] under setting [2] and 10 µM [falling, partial curve] under setting [1].
Turning to `O=C1/C(=C\c2ccco2)SC(=S)N1Cc1ccccc1`, the AC50 under setting [1] was 10 µM [falling, single point].
Consider `CCn1c(CN2CCN(c3cccc(C)c3C)CC2)n[nH]c1=S`, for which the AC50 reads like this: under setting [2], 3.98 µM [rising, partial curve]; under setting [1], 20 µM [rising, single point].
For the compound `Cc1ccc(NN2C(=O)C=C(c3ccccc3)C2=O)cc1`, the AC50 under setting [1] is 12.6 µM [falling, partial curve].
Regarding `Cc1ccccc1Cn1nc(C)c(NC(=O)c2noc3c2CCc2ccccc2-3)c1C`, under setting [1], the AC50 was 11.2 µM [rising, partial curve].
Turning to `N[C@H](C(=O)O)[C@H]1C[C@@H]1C(=O)O`, the AC50 under setting [1] is 0.002 µM [falling, full curve, poor fit].
Turning to `CC[C@H](C)C(=O)O[C@@H]1C[C@H](C)C=C2C=C[C@H](C)[C@@H](CC[C@H]3C[C@@H](O)CC(=O)O3)[C@H]21`, the AC50 was 1.12 µM [falling, single point] under setting [2] and 1.41 µM [falling, full curve, poor fit] under setting [1].
As for `CCOC(=O)c1c(N)nn(C(=O)c2ccccc2F)c1-c1ccc(OC)cc1`, the AC50 is 0.00794 µM [falling, full curve, poor fit] under setting [2] and 0.01 µM [falling, full curve, poor fit] under setting [1].
Turning to `O=C(N/N=C/c1ccc([N+](=O)[O-])o1)C1CC1`, under setting [1], the AC50 is 15.8 µM [rising, partial curve, poor fit].
Consider `CC1(C)SC(=S)N(/N=C/c2ccccc2)C1N(O)C(=O)Nc1ccc([N+](=O)[O-])cc1` (stereo not given), for which the AC50 under setting [2] is 11.2 µM [falling, single point].
As to `COc1ccc(N=C2SC(C(=O)Nc3ccc4c(c3)OCO4)CC(=O)N2C)cc1` (stereo not given), the AC50 under setting [1] was 35.5 µM [rising, single point].
For `Cc1ccc(Cn2nnnc2CN2CCC(NC(=O)c3ccc(Br)cc3)CC2)cc1`, the AC50 under setting [1] was 22.4 µM [rising, single point].
As for `C/C(=N\OCC(=O)Nn1c(C)nc2ccccc2c1=O)c1ccccc1`, the AC50 under setting [2] was 11.2 µM [rising, partial curve, poor fit].
For `Clc1ccc(-n2ncc3c(NCc4ccco4)ncnc32)cc1`, the AC50 is, setting by setting: under setting [2], 15.8 µM [rising, single point]; under setting [1], 22.4 µM [rising, single point].
`COc1cc(C(=O)Nc2ccc(N(C)C)cc2)c([N+](=O)[O-])cc1OC`: the AC50 under setting [1] is 35.5 µM [rising, single point].
For `Cc1ccc(NC(=O)CN2C(=O)N/C(=C\c3cccnc3)C2=O)cc1`, the AC50 under setting [2] was 5.62 µM [falling, single point].
Consider `COc1ccc(Cc2nnc(N/N=C/c3ccc(O)cc3)[nH]c2=O)cc1OC`, for which the AC50 under setting [1] was 12.6 µM [rising, partial curve].
Consider `CCC(=O)N1CCc2cc(S(=O)(=O)NCCC(=O)NC3CCCc4ccccc43)ccc21` (stereo not given), for which the AC50 under setting [2] is 10 µM [rising, partial curve] and the AC50 under setting [1] is 11.2 µM [rising, partial curve, poor fit].
As for `COc1ccc(C(=O)OCC(=O)Nc2ccc(Cl)c(C(F)(F)F)c2)c(OC)c1OC`, the AC50 by setting is: under setting [2], 17.8 µM [rising, single point]; under setting [1], 35.5 µM [rising, single point].
Turning to `COC(=O)C(N)Cc1ccc(Cl)cc1` (stereo not given), the AC50 under setting [2] was 35.5 µM [falling, single point].
On to `Cc1ccc(CNCc2cccnc2)s1`, for which the AC50 by setting is: under setting [2], 0.00447 µM [falling, full curve, poor fit]; under setting [1], 0.0251 µM [falling, full curve, poor fit].
As to `CCOC(=O)/C=C(\C)Sc1cc(=O)oc2ccccc12`, the AC50 under setting [2] was 12.6 µM [falling, partial curve] and the AC50 under setting [1] was 35.5 µM [falling, single point].
In the case of `O=C(CSc1nc(=O)n(Cc2ccco2)c2c1CCC2)NCc1ccccc1Cl`, the AC50 under setting [1] is 10 µM [rising, partial curve, poor fit].
On to `CC(C)(C)c1cc(C(=O)N/N=C/c2ccccc2O)n(-c2ccccc2)n1`, for which the AC50 under setting [2] was 3.16 µM [rising, full curve] and the AC50 under setting [1] is 7.94 µM [rising, partial curve].
As to `Cc1cc(N2CCCCC2)nc(SCc2ccc(C#N)cc2)n1`, the AC50 under setting [2] was 5.01 µM [rising, partial curve] and the concentration at half-maximal activity (AC50) under setting [1] is 11.2 µM [rising, partial curve].
In the case of `O=C(C1CCCN(S(=O)(=O)c2ccc(Br)s2)C1)N1CCCCCC1` (stereo not given), the AC50 reads like this: under setting [2], 3.16 µM [rising, full curve, poor fit]; under setting [1], 12.6 µM [rising, partial curve].
Turning to `Cc1nc2ccn(Cc3cccnc3)c(=O)c2cc1C(=O)NCc1ccc(Cl)cc1`, the AC50 under setting [2] is 2.82 µM [rising, full curve, poor fit].
Consider `COc1ccc(C(=O)N/N=C/c2ccc(OC)c(OS(=O)(=O)c3ccccc3)c2)cc1`, for which the AC50 under setting [1] was 3.55 µM [rising, partial curve].
Turning to `O=C(N/N=C/c1ccc[nH]1)c1cccnc1`, under setting [1], the AC50 was 0.398 µM [falling, partial curve].
The same measure, in the same setting: then `COc1ccc(C(=O)Nc2ccc3c(c2)N(C2CCCC2)C(=O)c2ccccc2S3)cc1OC`, with 4.47 µM [rising, full curve, poor fit].
Consider `Cc1ccccc1CNC(=O)CCCn1c(=O)c2cccn2c2ccccc21`, for which, under setting [2], the AC50 was 3.16 µM [rising, partial curve].
Take `O=C(NCCc1ccccc1)C(=O)NCC(c1cccnc1)N1CCN(c2ccccc2)CC1` (stereo not given): the AC50 under setting [1] was 6.31 µM [falling, full curve, poor fit].
As to `Cc1ccc(-c2nc3sc4c(c3c(=O)n2N)CCCC4)cc1`, the AC50 under setting [1] was 11.2 µM [rising, single point].
Turning to `C/C(=N\Nc1nc(N)cc(Cl)n1)c1cccc(N)c1`, the half-maximal activity concentration (AC50) under setting [2] is 0.708 µM [rising, single point].
As for `O=[N+]([O-])c1ccc(CN2CCOCCOCCN(Cc3ccc([N+](=O)[O-])cc3)CCOCC2)cc1`, the AC50 under setting [1] was 12.6 µM [rising, single point].
The same measure, in the same setting: the figure for `CSc1ccc(/C=C/c2ccc3cccc(O)c3n2)cc1` is 11.2 µM [rising, partial curve].
For `Cc1ccc(-n2nc3ccc(NC(=O)C(C)C)cc3n2)cc1`, the AC50 under setting [2] was 5.62 µM [falling, partial curve] and the AC50 under setting [1] is 1.41 µM [falling, full curve, poor fit].
As to `COc1cccc(NC(=O)C2CC(=O)N(C)C(=Nc3cccc(F)c3)S2)c1` (stereo not given), the AC50 was 12.6 µM [rising, partial curve, poor fit] under setting [2] and 12.6 µM [rising, single point] under setting [1].
Regarding `Cc1ccc(OCC(=O)N/N=C2/SCC(=O)N2Cc2ccco2)cc1`, under setting [1], the AC50 was 31.6 µM [falling, partial curve, poor fit].
The same measure, in the same setting: then `CC(C)c1ccc(S(=O)(=O)c2cn(Cc3ccc(F)cc3)c3cc4c(cc3c2=O)OCO4)cc1`, with 0.0158 µM [rising, full curve, poor fit].
As to `C=C(C)COc1ccc(-c2n[nH]c(C)c2Oc2ccccc2OC)c(O)c1`, the AC50 is 25.1 µM [rising, single point] under setting [2] and 20 µM [rising, single point] under setting [1].
As for `Cc1ccc(C)c(N2CCN(C(=O)c3ccc(CS(=O)(=O)c4ccccc4C)o3)CC2)c1`, the AC50 under setting [1] is 3.55 µM [rising, single point].
Take `CC(NC(=O)COC(=O)Cc1ccsc1)c1ccccc1` (stereo not given): the AC50 under setting [2] is 0.00891 µM [rising, full curve, poor fit].
As to `CSc1ncc(Cl)c(C(=O)Nc2ccc(S(=O)(=O)N3CCOCC3)cc2)n1`, the AC50 runs as follows: under setting [2], 15.8 µM [rising, single point]; under setting [1], 31.6 µM [rising, single point].
For `COc1ccc(CC(=O)NCc2nnc(SCC(=O)Nc3ccc(OC)cc3)n2C)cc1`, the AC50 under setting [2] is 1.26 µM [falling, partial curve] and the AC50 under setting [1] was 1.78 µM [falling, full curve].
